# PubChem BioAssay AID1508597 | Cure First – 2020
# Aim: 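Knock-downs altering ovarian cancer cell survival with or without PARP inhibitor rucaparib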 (primary screen)
# Cells: human ovarian carcinoma lines grown from tumours: OCI-P5x (papillary serous) and OCI-C5x (clear cell)
# Knock-down reagent: siRNA pool against human genes, 1.25 pmol siRNA per well
# Duration: 72 h or 96 h, depending on the cell culture
# Treatment: rucaparib 20 µM (about IC30) or vehicle, present until read-out
# Rucaparib or vehicle: Vehicle
# Cell line: OCI-C5x (clear cell)
# Detection: 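Luminescent ATP-based viability assay read 72 or 96 h after transfection, depending on culture, given as normalised percent viability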
# Reading the numbers: viability, normalised: higher = more viable cells remaining
# Hit rule: 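a well counts as a hit if its normalised viability is under 80 percent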
# Meaning of the calls: active = viability under 80%; inactive = viability 80% or more
# Shown is an unselected part of the about 2,100 reagents, in one setting of the screen. 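Calls flag viability under 80% in either arm, not effects specific to rucaparib; the reference for percent is not stated.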 Not given: the 100% reference.
target gene,technical replicate,"viability, normalised (%)",outcome
UCHL5,1,73.2,active
UCHL5,2,77.3,active
UCHL5,3,65.6,active
SMYD1,1,57,active
SMYD1,2,52.3,active
SMYD1,3,61.1,active
RPS6KA6,1,35,active
RPS6KA6,2,54.6,active
RPS6KA6,3,33.5,active
ASF1A,1,37.9,active
ASF1A,2,37.6,active
ASF1A,3,44.3,active
LPP,1,73.2,active
LPP,2,66.1,active
LPP,3,57,active
PANK1,1,54.2,active
PANK1,2,42.5,active
PANK1,3,58.7,active
FLT1,1,56.6,active
FLT1,2,43.8,active
FLT1,3,45.4,active
ARID4A,1,40.6,active
ARID4A,2,54.9,active
ARID4A,3,64.6,active

2 neighbouring entries already listed:
target gene,technical replicate,"viability, normalised (%)",outcome
LPP,1,73.2,active
LPP,2,66.1,active
